Test results published in PubChem BioAssay AID493014 (National Center for Advancing Translational Sciences (NCATS), 2011).
Some of the results follow. Further columns of the screen follow, without active or inactive calls. Most of these compounds were active or inconclusive in the main read-out, so they are no random draw. The note in brackets gives the kind of curve behind each potency; many fits are weak.

Test: qHTS Assay to Find Inhibitors of Chronic Active B-Cell Receptor Signaling
Conditions: ABC-DLBCL IkBa-CBG/CBR reporter, luminescence ratio (green luciferase fused to IkBa over red control in TMD8 lymphoma cells), 4 h
Summary of the method: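 Compounds up to 46 uM were incubated four hours with TMD8 cells whose green CBG68 luciferase is fused to IkappaBalpha; red CBR luminescence normalised the signal, and concentration-effect curves were fitted to fusion, red and ratio data.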

[1] = measured here: CBR red luminescence, cell number
[2] = measured here: IkBa-CBG green luminescence

| Compound | AC50 [1] | AC50 [2] |
| --- | --- | --- |
| O=C(COc1nsnc1N1CCOCC1)Nc1ccccc1Cl | 11.2 µM [falling, partial curve] |  |
| O=C(Nc1ccccc1OC(F)F)c1ccc(Br)o1 | 11.6 µM [rising, partial curve, poor fit] |  |
| COc1ccc2nc(NC(=O)C3CCCN(S(=O)(=O)c4cccs4)C3)sc2c1 (stereo not given) | 18.4 µM [falling, single point] |  |
| CC1=CC(C)(C)N=C(Nc2nc(C)c3cc(C)cc(C)c3n2)N1 | 12.6 µM [falling, partial curve, poor fit] |  |
| CCOC(=O)Cc1nc2ccccc2o1 | 14.1 µM [falling, single point] |  |
| O=C(Nc1ccccn1)c1ccc(Br)s1 | 11.2 µM [falling, single point] |  |
| O=c1[nH]c(C2CCN(S(=O)(=O)c3ccc(S(=O)(=O)NC4CC4)cc3)CC2)nc2c1nnn2Cc1ccc(F)cc1 | 35.5 µM [falling, single point] |  |
| Nc1nc(-c2ccco2)nc(N2CCCCC2)n1 | 1.58 µM [falling, full curve] |  |
| COc1ccc(/C=C/C(=O)N2CCN(c3ccccn3)CC2)c(OC)c1OC | 11.2 µM [falling, single point] |  |
| CCOc1ccc(-c2cccc(NC(=O)COc3ccccc3)c2)nn1 | 35.5 µM [falling, single point] |  |
| Cc1cccc(-n2ncc3c(N4CCOCC4)ncnc32)c1 | 23.1 µM [falling, partial curve] |  |
| CN(C)/C=C/C(=O)c1ccc(Oc2ncccn2)cc1 | 7.94 µM [rising, partial curve] |  |
| COc1cccc(CN(Cc2cccnc2)S(=O)(=O)c2ccc(-n3cnnn3)c(C)c2)c1OC | 17.8 µM [falling, partial curve, poor fit] |  |
| COCCn1c(SC(C(=O)Nc2cc(C)ccc2OC)c2ccccc2)nnc1-c1ccc(Cl)cc1 (stereo not given) | 2.91 µM [rising, single point] |  |
| Cc1ccc(SCc2c(C#N)c3ccccc3n2C)cc1 | 23.1 µM [falling, partial curve, poor fit] |  |
| O=C1[C@@H]2C(Cc3ccc(O)cc3)NC3(C(=O)Nc4ccc(F)cc43)[C@@H]2C(=O)N1c1ccccc1 (stereo not given in full) | 11.2 µM [falling, partial curve, poor fit] |  |
| C=CCNCc1ccccc1[N+](=O)[O-] | 6.51 µM [rising, single point] |  |
| CCCN(C(=O)Cc1csc(-c2ccccc2)n1)C1CCS(=O)(=O)C1 (stereo not given) | 25.9 µM [rising, single point] |  |
| O=C(NNC(=O)c1cc(Br)ccc1O)c1csc(N2CCOCC2)n1 | 16.4 µM [falling, partial curve] |  |
| Clc1cccc(-c2ccc(/C=N/n3cnnc3)o2)c1 | 23.1 µM [falling, single point] |  |
| O=C1CC(SCc2nc3ccccc3[nH]2)C(=O)N1c1ccc(F)cc1 (stereo not given) | 2.59 µM [falling, partial curve, poor fit] |  |

17 of these compounds, reformatted:
Compound,AC50 [1],AC50 [2]
O=C(Nc1ccccc1OC(F)F)c1ccc(Br)o1,"11.6 µM [rising, partial curve, poor fit]",
COc1ccc2nc(NC(=O)C3CCCN(S(=O)(=O)c4cccs4)C3)sc2c1 (stereo not given),"18.4 µM [falling, single point]",
CC1=CC(C)(C)N=C(Nc2nc(C)c3cc(C)cc(C)c3n2)N1,"12.6 µM [falling, partial curve, poor fit]",
CCOC(=O)Cc1nc2ccccc2o1,"14.1 µM [falling, single point]",
O=C(Nc1ccccn1)c1ccc(Br)s1,"11.2 µM [falling, single point]",
O=c1[nH]c(C2CCN(S(=O)(=O)c3ccc(S(=O)(=O)NC4CC4)cc3)CC2)nc2c1nnn2Cc1ccc(F)cc1,"35.5 µM [falling, single point]",
Nc1nc(-c2ccco2)nc(N2CCCCC2)n1,"1.58 µM [falling, full curve]",
COc1ccc(/C=C/C(=O)N2CCN(c3ccccn3)CC2)c(OC)c1OC,"11.2 µM [falling, single point]",
CCOc1ccc(-c2cccc(NC(=O)COc3ccccc3)c2)nn1,"35.5 µM [falling, single point]",
Cc1cccc(-n2ncc3c(N4CCOCC4)ncnc32)c1,"23.1 µM [falling, partial curve]",
CN(C)/C=C/C(=O)c1ccc(Oc2ncccn2)cc1,"7.94 µM [rising, partial curve]",
COc1cccc(CN(Cc2cccnc2)S(=O)(=O)c2ccc(-n3cnnn3)c(C)c2)c1OC,"17.8 µM [falling, partial curve, poor fit]",
COCCn1c(SC(C(=O)Nc2cc(C)ccc2OC)c2ccccc2)nnc1-c1ccc(Cl)cc1 (stereo not given),"2.91 µM [rising, single point]",
Cc1ccc(SCc2c(C#N)c3ccccc3n2C)cc1,"23.1 µM [falling, partial curve, poor fit]",
O=C1[C@@H]2C(Cc3ccc(O)cc3)NC3(C(=O)Nc4ccc(F)cc43)[C@@H]2C(=O)N1c1ccccc1 (stereo not given in full),"11.2 µM [falling, partial curve, poor fit]",
C=CCNCc1ccccc1[N+](=O)[O-],"6.51 µM [rising, single point]",
CCCN(C(=O)Cc1csc(-c2ccccc2)n1)C1CCS(=O)(=O)C1 (stereo not given),"25.9 µM [rising, single point]",

(continued)

| Compound | AC50 [1] | AC50 [2] |
| --- | --- | --- |
| COc1ccc(N2CCN(C(CNC(=O)c3cccs3)c3ccco3)CC2)cc1 (stereo not given) | 2.59 µM [rising, full curve, poor fit] |  |
| C=CC[C@@H](CC(=O)N(CCO)Cc1ccccc1)C(=O)N[C@@H](COC(=O)[C@@H](CC=C)Cc1ccc(F)cc1)Cc1ccccc1 | 10.3 µM [falling, partial curve] |  |
| CCOc1cc(Cn2c(-c3ccc(O)c(OCC)c3)nc3ccccc32)ccc1O | 20 µM [falling, partial curve, poor fit] |  |
| C=CS(=O)c1sc(Cl)c(N2CCOCC2)c1[N+](=O)[O-] (stereo not given) | 15.8 µM [falling, partial curve] | 31.6 µM [rising, single point] |
| Cc1ccc(CCNC(=O)CN2C(=O)COc3ccc(S(=O)(=O)N4CCCC4)cc32)cc1 | 22.4 µM [rising, single point] |  |
| Cc1ccc2[nH]c3c(N4CCOCC4)ncnc3c2c1 | 14.6 µM [rising, partial curve] |  |
| CCOc1ccc2ccccc2c1/C=N/n1cncn1 | 6.51 µM [rising, partial curve, poor fit] |  |
| Cn1nc(OCCOc2ccccc2)ccc1=O | 14.1 µM [rising, single point] |  |
| CCN(CC)S(=O)(=O)c1ccc2nc(NC(=O)c3cccs3)sc2c1 | 32.6 µM [falling, single point] |  |
| COc1ccc(NC(=O)COc2ccc(S(=O)(=O)N3CCOCC3)cc2C)cc1OC | 35.5 µM [rising, single point] |  |
| Cc1ccc(CCNC(=O)C2CCC(=O)N2CCc2ccccc2)cc1 (stereo not given) | 11.2 µM [rising, partial curve, poor fit] |  |
| CCc1cccc(NC(=O)CCCN2C(=O)C(c3ccccc3)Oc3cccnc32)c1 (stereo not given) | 11.2 µM [falling, partial curve, poor fit] |  |
| Cc1ccc(/C(=N\O)c2oc3c(C)c4oc(=O)cc(C)c4cc3c2C)cc1 | 18.4 µM [rising, single point] |  |
| C=CCn1c(C)c(C(C)=O)c(N2CCOCC2)nc1=S | 41.1 µM [falling, partial curve, poor fit] | 5.17 µM [rising, partial curve, poor fit] |
| N#CC1=C(N)S[C@H](C(=O)C23CC4CC(CC(C4)C2)C3)[C@H]1c1ccncc1 | 29.1 µM [falling, single point] |  |
| CCCC(=O)Nc1nc(-c2ccc(Cl)s2)cs1 | 14.1 µM [falling, single point] |  |
| COc1cccc(CN(C)C(=O)CNC(=O)c2sc3ccccc3c2Cl)c1OC | 18.4 µM [falling, partial curve, poor fit] |  |
| Fc1cccc(CN2CCN(Cc3nc(CCc4ccccc4)no3)CC2)c1 | 12.6 µM [rising, single point] |  |
| NC(=O)c1ccsc1NC(=O)c1ccc([N+](=O)[O-])o1 | 14.6 µM [falling, partial curve] |  |
| COc1ccc(Nc2nc(C(=O)N3CCc4cc(OC)c(OC)cc4C3)cs2)cc1 | 1.58 µM [rising, partial curve, poor fit] |  |
| O=C(O)CC1(CC(=O)Nc2ccc(Br)cc2)CCCCC1 | 7.08 µM [falling, partial curve] |  |

| Compound | AC50 [1] | AC50 [2] |
| --- | --- | --- |
| Cc1cc(C)nc(N2CCCC(C(=O)Nc3ccc4c(c3)OCCO4)C2)n1 (stereo not given) | 5.62 µM [falling, single point] |  |
| O=C(Nc1cccc(F)c1)c1cc(S(=O)(=O)NCCC2=CCCCC2)ccc1F | 32.6 µM [falling, single point] | 23.1 µM [rising, single point] |
| CCc1cc(=O)oc2cc3occ(C)c3cc12 | 0.0146 µM [rising, full curve, poor fit] |  |
| O=C(CN1C(=O)/C(=C\c2ccc(C(F)(F)F)cc2)Sc2ccccc21)NCc1ccco1 | 23.1 µM [rising, single point] |  |
| Cc1cc(OC(F)F)ccc1NC(=S)NC1CCCC1 | 1.12 µM [rising, partial curve] |  |
| O=C(N/N=C\c1ccc(-c2ccc([N+](=O)[O-])cc2)o1)c1ccc2c(c1)OCO2 | 3.66 µM [falling, full curve] |  |
| COc1ccccc1N1CCN(C(=O)CSc2nc(C)c(C)c(=O)[nH]2)CC1 | 1.58 µM [falling, full curve] |  |
| COc1ccc(OC)c(CN(CCN2CCOCC2)C(=O)Nc2ccccc2)c1 | 2.06 µM [rising, partial curve, poor fit] |  |
| Clc1ccc(-n2nnnc2-c2cnc3ccccc3c2-c2ccccc2)cc1 | 20 µM [falling, partial curve, poor fit] |  |
| CCN(CC)S(=O)(=O)c1ccc(O)c(C(=O)OCC(=O)Nc2ccc(OC(F)(F)F)cc2)c1 | 11.2 µM [rising, partial curve, poor fit] |  |
| CC1(C)CC(C)(c2ccc(O)cc2O)N(c2ccc3ccccc3c2)C(=S)N1 (stereo not given) | 8.2 µM [falling, partial curve, poor fit] |  |
| O=C(O)c1ccc(COc2ccc3c4c(c(=O)oc3c2)CCC4)o1 | 1.78 µM [falling, full curve, poor fit] |  |
| Nc1ncnc2nc(SCCOc3ccc(Cl)cc3)[nH]c12 | 4.11 µM [rising, full curve, poor fit] |  |
| O=c1cc(-c2ccccc2)nc2nc(CCc3ccccc3)[nH]n12 | 2.06 µM [falling, full curve] |  |
| C=CCC[C@@H](Cc1ccc(F)cc1)C(=O)OC[C@@H](Cc1c[nH]c2ccccc12)NC(=O)[C@H](CC=C)CC(=O)N(CCO)Cc1ccccc1 | 18.4 µM [falling, partial curve, poor fit] |  |
| CCCNC(=O)C/C(C)=N/NC(=O)C(=O)Nc1ccccn1 | 1.41 µM [falling, full curve, poor fit] |  |
| CN(C)S(=O)(=O)c1ccc(C(=O)NCC2CC2(Cl)Cl)cc1 (stereo not given) | 7.94 µM [falling, full curve, poor fit] |  |
| COc1ccc(S(=O)(=O)N2CCCCC2)cc1NC(=O)c1[nH]c(C)c(C(C)=O)c1C | 3.66 µM [rising, full curve, poor fit] |  |
| O=c1c2ccccc2sn1-c1cc(S(=O)(=O)N2CCOCC2)ccc1N1CCCC1 | 18.4 µM [rising, single point] |  |
| CC(C)Cn1c(N)c(C(=O)NCC2CCCO2)c2nc3ccccc3nc21 (stereo not given) | 12.6 µM [falling, partial curve, poor fit] |  |

Part of the list above in order of number of heavy atoms, descending.

| Compound | AC50 [1] | AC50 [2] |
| --- | --- | --- |
| O=c1c2ccccc2sn1-c1cc(S(=O)(=O)N2CCOCC2)ccc1N1CCCC1 | 18.4 µM [rising, single point] |  |
| Clc1ccc(-n2nnnc2-c2cnc3ccccc3c2-c2ccccc2)cc1 | 20 µM [falling, partial curve, poor fit] |  |
| Cc1cc(OC(F)F)ccc1NC(=S)NC1CCCC1 | 1.12 µM [rising, partial curve] |  |
